{
  "source": "paper PMC12378234",
  "about": "“Enzyme-mediated aminoglycoside resistance without target mimicry” (Communications Chemistry, 2025)",
  "system": "BL21(DE3) E. coli transformed with pUCP18 vector expressing untagged AAC(3)-Ia",
  "assay_type": "cell-based",
  "procedure": "Ten milliliters of LB containing […] ampicillin were inoculated from glycerol stocks of transformed BL21(DE3) E. coli containing genes expressing the proteins of interest in pUCP18 vectors. These cultures were incubated at 37 °C with 200 rpm agitation for 16 h. Turbidity was measured through OD600 with a NanoDrop OneC Spectrometer (Thermo Scientific). From the initial cultures, secondary 10 mL cultures were prepared with OD600 values of 0.1. These cultures were grown until OD600 values of 0.4–0.6 were reached and diluted to bring all cultures to the same OD600. Cultures were induced with 1 mM Isopropyl β-D-1-thiogalactopyranoside and incubated for 4 h. Two microliters of culture was added to 198 μL of LB with an appropriate aminoglycoside titration concentration. Each titration point was repeated n = 4 times. The formulated 96-well culture plate (Sarstedt) had OD600 measured on a 20-min interval over 17 h using a BioTek Cytation 5 Cell Imaging Multimode Reader, incubating at 37 °C with 282 cpm orbital agitation. Experiments were repeated with fresh cultures on separate days to ensure consistent trends. Data was analyzed in Microsoft Excel and GraphPad5. The remainder of the culture immediately had its RNA isolated for qPCR experiments.",
  "note": "Several values for one entry are separate records, joined by “and”; a condition that tells them apart may be missing. Equal values may be shown once. Read-outs that look alike come from different tables or passages of the source. The source gives many values for each of these; only a part stands here.",
  "data": [
    {"compound": "CN[C@@H]1[C@@H](O)[C@@H](O[C@@H]2[C@@H](O)[C@H](O[C@H]3OC(CN)=CC[C@H]3N)[C@@H](N)C[C@H]2N)OC[C@]1(C)O", "note": "[Sisomicin, sisomicin]", "values": [
      {"measurement": "OD600 growth curve", "setting": "6 ug/mL Sisomicin, time point 06:39:10", "value": "0.107 and 0.113 and 0.119"},
      {"measurement": "OD600 growth curve", "setting": "6 ug/mL Sisomicin, time point 06:59:10", "value": "0.107 and 0.113 and 0.121 and 0.119"},
      {"measurement": "OD600 growth curve", "setting": "6 ug/mL Sisomicin, time point 07:19:10", "value": "0.107 and 0.113 and 0.121 and 0.118"},
      {"measurement": "OD600 growth curve", "setting": "6 ug/mL Sisomicin, time point 07:39:10", "value": "0.107 and 0.113 and 0.121 and 0.117"},
      {"measurement": "OD600 growth curve", "setting": "6 ug/mL Sisomicin, time point 07:59:10", "value": "0.108 and 0.113 and 0.121 and 0.116"},
      {"measurement": "OD600 growth curve", "setting": "6 ug/mL Sisomicin, time point 08:19:10", "value": "0.108 and 0.113 and 0.121 and 0.114"},
      {"measurement": "OD600 growth curve", "setting": "6 ug/mL Sisomicin, time point 08:39:10", "value": "0.108 and 0.113 and 0.121"},
      {"measurement": "OD600 growth curve", "setting": "6 ug/mL Sisomicin, time point 08:59:10", "value": "0.108 and 0.112 and 0.121 and 0.111"},
      {"measurement": "OD600 growth curve", "setting": "6 ug/mL Sisomicin, time point 09:19:10", "value": "0.108 and 0.111 and 0.12 and 0.11"},
      {"measurement": "OD600 growth curve", "setting": "6 ug/mL Sisomicin, time point 09:39:10", "value": "0.108 and 0.112 and 0.121 and 0.109"},
      {"measurement": "OD600 growth curve", "setting": "6 ug/mL Sisomicin, time point 09:59:10", "value": "0.108 and 0.111 and 0.121"},
      {"measurement": "OD600 growth curve", "setting": "6 ug/mL Sisomicin, time point 10:19:10", "value": "0.108 and 0.11 and 0.12"},
      {"measurement": "OD600 growth curve", "setting": "6 ug/mL Sisomicin, time point 10:39:10", "value": "0.107 and 0.109 and 0.119 and 0.108"},
      {"measurement": "OD600 growth curve", "setting": "6 ug/mL Sisomicin, time point 10:59:10", "value": "0.107 and 0.108 and 0.119"},
      {"measurement": "OD600 growth curve", "setting": "6 ug/mL Sisomicin, time point 11:19:10", "value": "0.106 and 0.107 and 0.119 and 0.108"},
      {"measurement": "OD600 growth curve", "setting": "6 ug/mL Sisomicin, time point 11:39:10", "value": "0.106 and 0.118 and 0.107"},
      {"measurement": "OD600 growth curve", "setting": "6 ug/mL Sisomicin, time point 11:59:10", "value": "0.106 and 0.105 and 0.118"},
      {"measurement": "OD600 growth curve", "setting": "6 ug/mL Sisomicin, time point 12:19:10", "value": "0.105 and 0.104 and 0.116 and 0.106"},
      {"measurement": "OD600 growth curve", "setting": "6 ug/mL Sisomicin, time point 12:39:10", "value": "0.104 and 0.115 and 0.106"},
      {"measurement": "OD600 growth curve", "setting": "6 ug/mL Sisomicin, time point 12:59:10", "value": "0.104 and 0.103 and 0.114 and 0.106"},
      {"measurement": "OD600 growth curve", "setting": "12 ug/mL Sisomicin, time point 00:19:10", "value": "0.101 and 0.102 and 0.103"},
      {"measurement": "OD600 growth curve", "setting": "12 ug/mL Sisomicin, time point 00:39:10", "value": "0.102 and 0.103 and 0.104"},
      {"measurement": "OD600 growth curve", "setting": "12 ug/mL Sisomicin, time point 00:59:10", "value": "0.102 and 0.104 and 0.105"},
      {"measurement": "OD600 growth curve", "setting": "12 ug/mL Sisomicin, time point 01:19:10", "value": "0.102 and 0.105"},
      {"measurement": "OD600 growth curve", "setting": "12 ug/mL Sisomicin, time point 01:39:10", "value": "0.102 and 0.104 and 0.105 and 0.106"},
      {"measurement": "OD600 growth curve", "setting": "12 ug/mL Sisomicin, time point 01:59:10", "value": "0.102 and 0.104 and 0.105 and 0.106"},
      {"measurement": "OD600 growth curve", "setting": "12 ug/mL Sisomicin, time point 02:19:10", "value": "0.102 and 0.104 and 0.105 and 0.106"},
      {"measurement": "OD600 growth curve", "setting": "12 ug/mL Sisomicin, time point 02:39:10", "value": "0.101 and 0.103 and 0.104 and 0.105"},
      {"measurement": "OD600 growth curve", "setting": "12 ug/mL Sisomicin, time point 02:59:10", "value": "0.101 and 0.103 and 0.104 and 0.105"},
      {"measurement": "OD600 growth curve", "setting": "12 ug/mL Sisomicin, time point 03:19:10", "value": "0.101 and 0.103 and 0.105"},
      {"measurement": "OD600 growth curve", "setting": "12 ug/mL Sisomicin, time point 03:39:10", "value": "0.1 and 0.102 and 0.105"},
      {"measurement": "OD600 growth curve", "setting": "12 ug/mL Sisomicin, time point 03:59:10", "value": "0.1 and 0.102 and 0.104"},
      {"measurement": "OD600 growth curve", "setting": "12 ug/mL Sisomicin, time point 04:19:10", "value": "0.099 and 0.101 and 0.102 and 0.104"},
      {"measurement": "OD600 growth curve", "setting": "12 ug/mL Sisomicin, time point 04:39:10", "value": "0.099 and 0.101 and 0.103"},
      {"measurement": "OD600 growth curve", "setting": "12 ug/mL Sisomicin, time point 04:59:10", "value": "0.099 and 0.1 and 0.101 and 0.103"},
      {"measurement": "OD600 growth curve", "setting": "12 ug/mL Sisomicin, time point 05:19:10", "value": "0.099 and 0.1 and 0.102"},
      {"measurement": "OD600 growth curve", "setting": "12 ug/mL Sisomicin, time point 05:39:10", "value": "0.098 and 0.1 and 0.102"},
      {"measurement": "OD600 growth curve", "setting": "12 ug/mL Sisomicin, time point 05:59:10", "value": "0.098 and 0.099 and 0.1 and 0.102"},
      {"measurement": "OD600 growth curve", "setting": "12 ug/mL Sisomicin, time point 06:19:10", "value": "0.098 and 0.099 and 0.101"},
      {"measurement": "OD600 growth curve", "setting": "12 ug/mL Sisomicin, time point 06:39:10", "value": "0.098 and 0.099 and 0.101"},
      {"measurement": "OD600 growth curve", "setting": "12 ug/mL Sisomicin, time point 06:59:10", "value": "0.097 and 0.099 and 0.101"},
      {"measurement": "OD600 growth curve", "setting": "12 ug/mL Sisomicin, time point 07:19:10", "value": "0.097 and 0.099 and 0.101"},
      {"measurement": "OD600 growth curve", "setting": "12 ug/mL Sisomicin, time point 07:39:10", "value": "0.097 and 0.098 and 0.101"},
      {"measurement": "OD600 growth curve", "setting": "12 ug/mL Sisomicin, time point 07:59:10", "value": "0.097 and 0.098 and 0.1"},
      {"measurement": "OD600 growth curve", "setting": "12 ug/mL Sisomicin, time point 08:19:10", "value": "0.097 and 0.098 and 0.1"},
      {"measurement": "OD600 growth curve", "setting": "12 ug/mL Sisomicin, time point 08:39:10", "value": "0.097 and 0.098 and 0.1"},
      {"measurement": "OD600 growth curve", "setting": "12 ug/mL Sisomicin, time point 08:59:10", "value": "0.097 and 0.098 and 0.1"},
      {"measurement": "OD600 growth curve", "setting": "12 ug/mL Sisomicin, time point 09:19:10", "value": "0.096 and 0.098 and 0.1"},
      {"measurement": "OD600 growth curve", "setting": "12 ug/mL Sisomicin, time point 09:39:10", "value": "0.096 and 0.098 and 0.1"},
      {"measurement": "OD600 growth curve", "setting": "12 ug/mL Sisomicin, time point 09:59:10", "value": "0.096 and 0.098 and 0.1"},
      {"measurement": "OD600 growth curve", "setting": "12 ug/mL Sisomicin, time point 10:19:10", "value": "0.096 and 0.097 and 0.1"},
      {"measurement": "OD600 growth curve", "setting": "12 ug/mL Sisomicin, time point 10:39:10", "value": "0.096 and 0.097 and 0.1"},
      {"measurement": "OD600 growth curve", "setting": "12 ug/mL Sisomicin, time point 10:59:10", "value": "0.096 and 0.097 and 0.1"},
      {"measurement": "OD600 growth curve", "setting": "12 ug/mL Sisomicin, time point 11:19:10", "value": "0.096 and 0.097 and 0.1"},
      {"measurement": "OD600 growth curve", "setting": "12 ug/mL Sisomicin, time point 11:39:10", "value": "0.096 and 0.097 and 0.1"},
      {"measurement": "OD600 growth curve", "setting": "12 ug/mL Sisomicin, time point 11:59:10", "value": "0.096 and 0.097 and 0.099"},
      {"measurement": "OD600 growth curve", "setting": "12 ug/mL Sisomicin, time point 12:19:10", "value": "0.096 and 0.097 and 0.099"},
      {"measurement": "OD600 growth curve", "setting": "12 ug/mL Sisomicin, time point 12:39:10", "value": "0.096 and 0.097 and 0.099"},
      {"measurement": "OD600 growth curve", "setting": "12 ug/mL Sisomicin, time point 12:59:10", "value": "0.095 and 0.097 and 0.099"}
    ]}
  ]
}
